At least one structure is not confirmed: it was looked up by name or label, or the drawing left a doubt.
System: interaction of G-CREB with V-CBP/KIX in PC12 20.4 cells
Assay: Cre recombinase-based two-hybrid system, induced and transient interaction, FACS analysis of GFP
Type: cell-based, rat
Conditions: cotransfection G-CREB with V-CBP/KIX; transient forskolin 4 μM for 12 h; FACS three days after transfection

For C=C[C@@]1(C)CC(=O)[C@]2(O)[C@@]3(C)[C@@H](O)CCC(C)(C)[C@@H]3[C@H](O)[C@H](OC(C)=O)[C@@]2(C)O1 [forskolin], the “increase in total fluorescence of the GFP-positive cells versus unstimulated control” value was “twenty times higher”.
